Values of other authors in patent US20040209344A1, “Crystal structure of angiotensin-converting enzyme-related carboxypeptidase” (priority 2002, published 2004).
At least one structure is not confirmed: it was looked up by name or label, or the drawing left a doubt. Where no end group is shown, it is not given here.

The chains behind the UniProt entries cited, without tags or fusion partners. Residues count along the entry.
UniProt Q9BYF1, 18-805: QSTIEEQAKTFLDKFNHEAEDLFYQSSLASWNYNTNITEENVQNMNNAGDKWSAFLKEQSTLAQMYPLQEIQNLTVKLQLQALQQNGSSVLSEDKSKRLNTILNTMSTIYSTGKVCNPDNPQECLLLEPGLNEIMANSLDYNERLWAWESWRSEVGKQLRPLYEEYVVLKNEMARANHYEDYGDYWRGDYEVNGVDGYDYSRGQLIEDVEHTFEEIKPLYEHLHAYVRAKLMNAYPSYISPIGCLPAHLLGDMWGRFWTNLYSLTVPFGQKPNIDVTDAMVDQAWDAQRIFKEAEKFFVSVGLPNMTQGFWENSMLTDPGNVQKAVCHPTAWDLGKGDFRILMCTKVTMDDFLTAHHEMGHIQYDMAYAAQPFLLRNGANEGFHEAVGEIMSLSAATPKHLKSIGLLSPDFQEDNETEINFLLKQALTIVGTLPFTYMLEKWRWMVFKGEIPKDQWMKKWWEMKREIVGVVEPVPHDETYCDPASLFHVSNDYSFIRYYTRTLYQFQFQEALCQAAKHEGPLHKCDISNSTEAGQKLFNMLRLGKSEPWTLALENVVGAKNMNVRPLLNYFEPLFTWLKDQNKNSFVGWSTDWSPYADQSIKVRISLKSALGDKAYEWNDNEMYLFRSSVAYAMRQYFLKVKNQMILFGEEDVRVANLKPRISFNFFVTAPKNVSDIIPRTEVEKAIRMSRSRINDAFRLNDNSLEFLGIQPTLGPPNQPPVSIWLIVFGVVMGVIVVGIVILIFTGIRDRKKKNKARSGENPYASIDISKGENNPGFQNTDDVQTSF

Target: ACE2 (Homo sapiens, UniProt Q9BYF1)
Conditions: Vickers et al.

RPPGFSPFR [Bradykinin]
activity as peptide substrate for ACE2: inactive
